Measurements reported in PubChem BioAssay AID1259254 (NCATS, 2017)
In all, the deposit lists about 59,000 reagents; below is a part drawn at random. Over the whole deposit, about 1,550 (2.6%) got an active call. 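G2 share is only a proxy for re-replication; each gene was hit by three separate siRNAs, and active genes were retested.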 Raw values vary from plate to plate and are shown uncorrected. The numbers tell different reagents against one gene apart. Not stated in the record: the amount of reagent.

Test: 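Genome-wide screen for genes that prevent DNA re-replication in cancer cells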 (primary screen)
System: human HCT116 colorectal cancer cells
Reagent: single siRNA against human genes
Duration: 3 days
Detection: 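Imaged Hoechst DNA stain sorts each cell into a cycle phase by DNA amount; per plate, G2 fraction set to 0% for non-targeting and 100% for GMNN siRNA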
Direction: G2 robust z-score and G2 cells, % of GMNN control: higher = more G2 cells, more excess DNA replication; raw share of cells in G2: higher = larger share of cells with G2 DNA content
Active means: 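Active siRNAs have a G2 robust z of 5 or more median absolute deviations over the median, which in these data means about 38% or higher of GMNN control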

Target gene | siRNA no. | G2 robust z-score | G2 cells, % of GMNN control | raw share of cells in G2 (%) | outcome
CRPPA | 1 | -1.06 | -4.51 | 2.32 | inactive
CRPPA | 2 | -0.168 | 1.79 | 3.82 | inactive
CRPPA | 3 | -0.235 | 1.32 | 3.66 | inactive
CCNDBP1 | 1 | -0.132 | 2.04 | 5.18 | inactive
CCNDBP1 | 2 | 0.773 | 8.4 | 7.58 | inactive
CCNDBP1 | 3 | -1.05 | -4.43 | 1.75 | inactive
PSG2 | 1 | 0.0455 | 3.29 | 6.37 | inactive
PSG2 | 2 | 0.128 | 3.87 | 5.75 | inactive
PSG2 | 3 | -0.366 | 0.393 | 3.5 | inactive
FNBP1L | 1 | 0.0937 | 3.63 | 5.85 | inactive
FNBP1L | 2 | 0.81 | 8.66 | 10.2 | inactive
FNBP1L | 3 | -0.235 | 1.31 | 4.91 | inactive
RAB3GAP2 | 1 | 0.988 | 9.92 | 10.7 | inactive
RAB3GAP2 | 2 | -0.688 | -1.87 | 3.57 | inactive
RAB3GAP2 | 3 | -0.0483 | 2.63 | 4.85 | inactive
SPRR2B | 1 | 1.52 | 13.6 | 8.47 | inactive
SPRR2B | 2 | 3.1 | 24.8 | 13 | inactive
SPRR2B | 3 | 4.57 | 35.1 | 17.5 | inactive
CD180 | 1 | -0.44 | -0.127 | 5.42 | inactive
CD180 | 2 | -0.912 | -3.45 | 4.03 | inactive
CD180 | 3 | -0.882 | -3.24 | 2.13 | inactive
ARGLU1 | 1 | -0.605 | -1.29 | 4.03 | inactive
ARGLU1 | 2 | 0.0222 | 3.12 | 5.43 | inactive
ARGLU1 | 3 | 0.988 | 9.92 | 6.3 | inactive
ERCC6 | 1 | -0.489 | -0.47 | 5.07 | inactive
ERCC6 | 2 | 0.388 | 5.7 | 7.43 | inactive
ERCC6 | 3 | -0.355 | 0.472 | 3.83 | inactive
SLC22A12 | 1 | 1.65 | 14.6 | 12.4 | inactive
SLC22A12 | 2 | 4.6 | 35.3 | 20.1 | inactive
SLC22A12 | 3 | -0.0949 | 2.3 | 5.35 | inactive
NPM3 | 1 | -0.64 | -1.53 | 3.02 | inactive
NPM3 | 2 | -1.3 | -6.18 | 3.23 | inactive
NPM3 | 3 | -0.744 | -2.27 | 2.39 | inactive
RETREG3 | 1 | 0.758 | 8.3 | 6.58 | inactive
RETREG3 | 2 | 1.95 | 16.7 | 8.56 | inactive
RETREG3 | 3 | 1.63 | 14.4 | 7.32 | inactive
CFI | 1 | 0.216 | 4.49 | 7.12 | inactive
CFI | 2 | 0.732 | 8.12 | 7.78 | inactive
CFI | 3 | -0.488 | -0.468 | 3.74 | inactive
LIX1L | 1 | -0.958 | -3.77 | 2.75 | inactive
LIX1L | 2 | 1.22 | 11.5 | 6.76 | inactive
LIX1L | 3 | 0.666 | 7.65 | 5.35 | inactive
NDUFA10 | 1 | -0.362 | 0.423 | 3.33 | inactive
NDUFA10 | 2 | 0.209 | 4.44 | 7.23 | inactive
NDUFA10 | 3 | 1.09 | 10.6 | 9.46 | inactive
ASIC3 | 1 | -0.699 | -1.95 | 4.58 | inactive
ASIC3 | 2 | 0.575 | 7.01 | 7.15 | inactive
ASIC3 | 3 | 0.619 | 7.32 | 7.23 | inactive
TFAP4 | 1 | 4.06 | 31.5 | 15.8 | inactive
TFAP4 | 2 | -0.392 | 0.211 | 4.76 | inactive
TFAP4 | 3 | -0.676 | -1.79 | 3.55 | inactive
DMWD | 1 | 0.942 | 9.6 | 9.8 | inactive
DMWD | 2 | -0.0527 | 2.6 | 5.04 | inactive
DMWD | 3 | 4.48 | 34.5 | 17 | inactive
FNIP1 | 1 | -0.671 | -1.75 | 3.39 | inactive
FNIP1 | 2 | -0.784 | -2.55 | 2.57 | inactive
FNIP1 | 3 | -0.422 | -0.00135 | 1.82 | inactive
HMGB4 | 1 | 1.19 | 11.4 | 6.7 | inactive
HMGB4 | 2 | 0.57 | 6.98 | 6.81 | inactive
HMGB4 | 3 | -0.0821 | 2.39 | 3.86 | inactive
DDX24 | 1 | 0.915 | 9.41 | 10.6 | inactive
DDX24 | 2 | 1.38 | 12.7 | 8.99 | inactive
DDX24 | 3 | 7.19 | 53.6 | 26.7 | active
ZFP69 | 1 | -0.588 | -1.17 | 2.69 | inactive
ZFP69 | 2 | -0.237 | 1.3 | 3.62 | inactive
ZFP69 | 3 | -1.07 | -4.57 | 1.92 | inactive
ZNF721 | 1 | -0.868 | -3.14 | 2.01 | inactive
ZNF721 | 2 | -0.0205 | 2.82 | 4.15 | inactive
ZNF721 | 3 | 2.39 | 19.8 | 10.5 | inactive

Look-ups from the list:
Value of ARGLU1 #3 in “G2 robust z-score”: 0.988
DDX24 #2, G2 cells, % of GMNN control → 12.7
LIX1L #3, G2 cells, % of GMNN control → 7.65
For “outcome”, NDUFA10 #3 is entered as inactive
Under “G2 cells, % of GMNN control”, PSG2 #1 reads 3.29
Result of FNIP1 #2 under “G2 robust z-score”: -0.784
